Publication PMC7862700
The list shows a part of the results, in another mix than the full data. At the low end of the ranking, values are background and their order means little.

These sequences were tested against T1, ELF5 (UniProt Q9UKW6-2) (assay: DAPPL (digital affinity profiling via proximity ligation, sequencing)). Conditions: 10 mM Tris-HCl pH 7.5, 50 mM NaCl, 1 mM DTT, 4% glycerol, room temperature, 30 min; GST-TFs on glutathione beads, 16-mer random dsDNA library, 0.1% …; high values mean tight binding; double strand, one strand shown; scale: fold enrichment (6-mer frequency, TF over GST control).
T1 sequence: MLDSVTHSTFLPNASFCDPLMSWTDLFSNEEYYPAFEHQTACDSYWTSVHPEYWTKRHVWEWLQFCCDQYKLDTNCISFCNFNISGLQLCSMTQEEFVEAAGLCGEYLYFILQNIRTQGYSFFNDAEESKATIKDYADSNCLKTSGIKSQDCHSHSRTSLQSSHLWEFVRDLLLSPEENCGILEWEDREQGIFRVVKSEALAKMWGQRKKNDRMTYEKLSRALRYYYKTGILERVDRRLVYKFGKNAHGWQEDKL

| Sequence | binding signal |
| --- | --- |
| TGCCCC | 1.18 |
| GTACCC | 1.01 |
| AAGTGT | 1.43 |
| ACGATA | 1.09 |
| TTTCCG | 5.34 |
| GTCTTG | 0.997 |
| CTGGAA | 1.34 |
| TCTGGT | 1.26 |
| CGAATG | 0.998 |
| ACAAAA | 1.21 |
| AGTGCC | 0.962 |
| GCGACA | 0.919 |
| CGGGCT | 0.92 |
| GGTATC | 0.993 |
| CTACAG | 1.08 |
| AACTCT | 1.35 |
| CCACCA | 0.983 |
| TTGAGG | 1.11 |
| TTGGCT | 0.985 |
| GCTCCG | 1.25 |

| Sequence | binding signal |
| --- | --- |
| GTACGC | 1.06 |
| TGGGCA | 0.905 |
| AACGCA | 1.04 |
| CAACGC | 0.996 |
| AGCAAA | 1 |
| TCATAC | 1.09 |
| CATGTA | 0.993 |
| GAAATT | 1.51 |
| AACCCT | 1.28 |
| GTCCCC | 1.13 |
| ACACTC | 1.05 |
| TGCCGA | 0.994 |
| ACCTCT | 1.34 |
| ATGCCG | 1.13 |
| GCAGCT | 0.909 |
| GCTAAC | 0.925 |
| CCGGTG | 0.934 |
| TCGCCG | 1.15 |
| CAAGTT | 1.03 |
| TCACTC | 1.1 |

2 entries from above, set out differently:
Sequence	binding signal
ACACTC	1.05
TGCCGA	0.994
